Results deposited as PubChem BioAssay AID1508597 (Cure First, 2020).

Screen: 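Survival screen with siRNA in ovarian cancer cells derived from patients, with or without rucaparib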 (primary screen)
System: human ovarian carcinoma lines grown from tumours: OCI-P5x (papillary serous) and OCI-C5x (clear cell)
Reagent: siRNA pool against human genes, 1.25 pmol siRNA per well
Duration: 72 h or 96 h, depending on the cell culture
Challenge: rucaparib 20 µM (about IC30) or vehicle, present until read-out
Rucaparib or vehicle: Rucaparib
Cell line: OCI-P5x (serous)
Read-out: 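Luminescent ATP-based viability assay read 72 or 96 h after transfection, depending on culture, given as normalised percent viability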
Scale: viability, normalised: higher = more viable cells remaining
Active means: 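a well counts as a hit if its normalised viability is under 80 percent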
Calls: active = viability under 80%; inactive = viability 80% or more
This is a random part of the about 2,100 reagents, in one setting of the screen. 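Calls flag viability under 80% in either arm, not effects specific to rucaparib; the reference for percent is not stated.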 Some reagents were tested in more than one well and are listed for each. Not stated in the record: the 100% reference.

| target gene | technical replicate | viability, normalised (%) | call |
| --- | --- | --- | --- |
| DGKH (diacylglycerol kinase eta) | 1 | 113 | inactive |
| DGKH (diacylglycerol kinase eta) | 2 | 98.7 | inactive |
| DGKH (diacylglycerol kinase eta) | 3 | 118 | inactive |
| PIAS1 (protein inhibitor of activated STAT 1) | 1 | 32 | active |
| PIAS1 (protein inhibitor of activated STAT 1) | 2 | 32.7 | active |
| PIAS1 (protein inhibitor of activated STAT 1) | 3 | 31.8 | active |
| DDX52 (DExD-box helicase 52) | 1 | 72.3 | active |
| DDX52 (DExD-box helicase 52) | 2 | 81.6 | inactive |
| DDX52 (DExD-box helicase 52) | 3 | 78.4 | active |
| ACTB (actin beta) | 1 | 65.6 | active |
| ACTB (actin beta) | 2 | 49.3 | active |
| ACTB (actin beta) | 3 | 57.7 | active |
| RHO (rhodopsin) | 1 | 30.2 | active |
| RHO (rhodopsin) | 2 | 44.2 | active |
| RHO (rhodopsin) | 3 | 31 | active |
| BAZ2A (bromodomain adjacent to zinc finger domain 2A) | 1 | 52.1 | active |
| BAZ2A (bromodomain adjacent to zinc finger domain 2A) | 2 | 51.6 | active |
| BAZ2A (bromodomain adjacent to zinc finger domain 2A) | 3 | 53.4 | active |

Quoted from the entries so far (3 entries):
| target gene | technical replicate | viability, normalised (%) | call |
| --- | --- | --- | --- |
| RHO (rhodopsin) | 2 | 44.2 | active |
| RHO (rhodopsin) | 3 | 31 | active |
| BAZ2A (bromodomain adjacent to zinc finger domain 2A) | 1 | 52.1 | active |

More entries follow.
| target gene | technical replicate | viability, normalised (%) | call |
| --- | --- | --- | --- |
| SMYD1 (SET and MYND domain containing 1) | 1 | 47.5 | active |
| SMYD1 (SET and MYND domain containing 1) | 2 | 56.4 | active |
| SMYD1 (SET and MYND domain containing 1) | 3 | 55 | active |
| GRK4 (G protein-coupled receptor kinase 4) | 1 | 93.1 | inactive |
| GRK4 (G protein-coupled receptor kinase 4) | 2 | 94.6 | inactive |
| GRK4 (G protein-coupled receptor kinase 4) | 3 | 81.5 | inactive |
| RAD1 (RAD1 checkpoint DNA exonuclease) | 1 | 65.2 | active |
| RAD1 (RAD1 checkpoint DNA exonuclease) | 2 | 56.4 | active |
| RAD1 (RAD1 checkpoint DNA exonuclease) | 3 | 56.5 | active |
| SRPK1 (SRSF protein kinase 1) | 1 | 111 | inactive |
| SRPK1 (SRSF protein kinase 1) | 2 | 90.2 | inactive |
| SRPK1 (SRSF protein kinase 1) | 3 | 104 | inactive |
| LATS1 (large tumor suppressor kinase 1) | 1 | 103 | inactive |
| LATS1 (large tumor suppressor kinase 1) | 1 | 71.1 | active |
| LATS1 (large tumor suppressor kinase 1) | 2 | 65.3 | active |
| LATS1 (large tumor suppressor kinase 1) | 2 | 126 | inactive |
| LATS1 (large tumor suppressor kinase 1) | 3 | 100 | inactive |
| LATS1 (large tumor suppressor kinase 1) | 3 | 93.9 | inactive |
| JMJD1C (jumonji domain containing 1C) | 1 | 76.3 | active |
| JMJD1C (jumonji domain containing 1C) | 2 | 75.3 | active |
| JMJD1C (jumonji domain containing 1C) | 3 | 84.8 | inactive |
